In publication PMC5226551:
These are yes or no findings as the source states them, for the method shown. In cells and extracts the contact can be indirect. Some entries that bind do so weakly or less than the wild type.

Sequences of proteins named here, by UniProt entry; tags and fusion partners are left off.
UniProt P35222: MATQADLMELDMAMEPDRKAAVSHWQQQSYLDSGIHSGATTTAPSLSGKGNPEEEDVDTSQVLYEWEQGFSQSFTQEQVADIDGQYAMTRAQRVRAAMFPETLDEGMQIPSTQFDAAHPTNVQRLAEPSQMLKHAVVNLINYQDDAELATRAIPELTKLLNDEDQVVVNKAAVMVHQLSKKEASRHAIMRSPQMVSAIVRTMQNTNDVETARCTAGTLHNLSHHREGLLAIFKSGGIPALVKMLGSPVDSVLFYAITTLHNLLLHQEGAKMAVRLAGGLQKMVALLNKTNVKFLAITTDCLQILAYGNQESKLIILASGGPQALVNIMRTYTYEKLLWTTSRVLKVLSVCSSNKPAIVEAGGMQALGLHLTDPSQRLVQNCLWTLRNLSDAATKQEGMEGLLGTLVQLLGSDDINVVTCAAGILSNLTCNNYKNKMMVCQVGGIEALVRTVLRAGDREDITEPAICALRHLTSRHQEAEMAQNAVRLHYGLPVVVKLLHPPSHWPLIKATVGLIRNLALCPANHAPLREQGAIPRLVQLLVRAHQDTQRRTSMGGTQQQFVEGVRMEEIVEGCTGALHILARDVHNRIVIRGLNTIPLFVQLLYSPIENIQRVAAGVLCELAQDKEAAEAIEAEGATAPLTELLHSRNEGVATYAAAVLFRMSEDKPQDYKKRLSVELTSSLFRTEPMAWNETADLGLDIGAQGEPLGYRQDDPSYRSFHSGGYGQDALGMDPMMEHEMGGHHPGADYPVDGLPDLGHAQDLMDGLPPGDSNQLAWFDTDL

Molecular target: T1, WNT1 inducible signaling pathway protein 1 (WISP1) (human (endogenous in LOVO and RKO)) (UniProt O95388)
T1 sequence: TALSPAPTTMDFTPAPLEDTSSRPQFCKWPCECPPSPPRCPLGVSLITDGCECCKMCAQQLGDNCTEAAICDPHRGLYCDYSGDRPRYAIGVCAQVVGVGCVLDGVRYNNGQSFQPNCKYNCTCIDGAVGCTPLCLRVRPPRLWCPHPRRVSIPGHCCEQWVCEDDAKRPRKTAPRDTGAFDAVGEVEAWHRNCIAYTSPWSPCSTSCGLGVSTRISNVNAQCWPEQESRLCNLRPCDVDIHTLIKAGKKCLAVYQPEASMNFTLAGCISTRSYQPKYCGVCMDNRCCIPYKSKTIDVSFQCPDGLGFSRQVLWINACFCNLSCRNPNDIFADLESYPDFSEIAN
Test: co-IP; in LOVO and RKO cells; input and IP samples blotted with WISP1 and β-catenin antibodies; normal rabbit/mouse IgG listed; which protein was precipitated is not told; procedure as in ref. 45

binding: binds
Substance: β-catenin (from UniProt P35222 1-781)
